# In the supplement of paper PMC6411743:
# ± gives the standard deviation of the averaged measurements. This is one part of the list.
# How the values were obtained:
# Test in all cases: NP40-soluble protein abundance relative to vehicle (solubility fold change) (ratio); higher = more soluble protein in presence of GTP
# UniProt Q6UW63 = biological target: T1, UniProt Q6UW63
# T1 sequence (whole entry): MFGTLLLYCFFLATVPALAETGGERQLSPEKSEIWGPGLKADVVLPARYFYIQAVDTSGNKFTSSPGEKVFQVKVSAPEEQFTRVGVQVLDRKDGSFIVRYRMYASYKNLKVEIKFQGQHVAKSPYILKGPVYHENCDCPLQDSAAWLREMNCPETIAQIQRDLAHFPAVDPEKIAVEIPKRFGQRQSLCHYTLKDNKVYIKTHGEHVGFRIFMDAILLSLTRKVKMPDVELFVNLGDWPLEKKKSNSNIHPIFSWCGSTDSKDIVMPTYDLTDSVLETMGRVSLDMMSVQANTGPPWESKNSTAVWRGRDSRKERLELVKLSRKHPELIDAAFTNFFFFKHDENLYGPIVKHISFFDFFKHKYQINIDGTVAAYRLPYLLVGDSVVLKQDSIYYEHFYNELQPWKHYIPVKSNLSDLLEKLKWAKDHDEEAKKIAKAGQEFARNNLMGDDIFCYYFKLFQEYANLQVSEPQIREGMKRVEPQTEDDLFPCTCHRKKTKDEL
# Procedure, shortened: (§1)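 Eight concentrations, 0.1 to 10 mM, were tested on Jurkat crude lysate for 10 min at room temperature and then 3 min at 37 °C, in three independent experiments. The lysate was solubilised with 0.8% NP40 and benzonase, ultracentrifuged, and the supernatant TMT-labelled for LC-MS/MS. Each value is the fold change against the detergent-processed vehicle in its own replicate, from vsn-normalised intensities.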
# UniProt Q6UX04 = biological target: T2, UniProt Q6UX04
# T2 sequence (whole entry): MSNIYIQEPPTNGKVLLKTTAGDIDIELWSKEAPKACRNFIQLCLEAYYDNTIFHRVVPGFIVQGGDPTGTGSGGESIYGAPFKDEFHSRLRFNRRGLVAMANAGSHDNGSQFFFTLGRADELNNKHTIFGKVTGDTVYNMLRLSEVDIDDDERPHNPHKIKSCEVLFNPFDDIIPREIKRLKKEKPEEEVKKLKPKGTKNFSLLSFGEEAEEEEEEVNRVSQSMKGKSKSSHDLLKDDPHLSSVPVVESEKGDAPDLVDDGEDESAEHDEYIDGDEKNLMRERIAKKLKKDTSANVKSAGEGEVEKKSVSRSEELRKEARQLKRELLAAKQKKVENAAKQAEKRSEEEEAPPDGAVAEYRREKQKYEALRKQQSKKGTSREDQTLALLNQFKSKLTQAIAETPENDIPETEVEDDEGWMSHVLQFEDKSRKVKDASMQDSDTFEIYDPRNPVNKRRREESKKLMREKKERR
# Procedure, shortened: as §1
# UniProt Q7L8W6 = biological target: T3, UniProt Q7L8W6
# T3 sequence (whole entry): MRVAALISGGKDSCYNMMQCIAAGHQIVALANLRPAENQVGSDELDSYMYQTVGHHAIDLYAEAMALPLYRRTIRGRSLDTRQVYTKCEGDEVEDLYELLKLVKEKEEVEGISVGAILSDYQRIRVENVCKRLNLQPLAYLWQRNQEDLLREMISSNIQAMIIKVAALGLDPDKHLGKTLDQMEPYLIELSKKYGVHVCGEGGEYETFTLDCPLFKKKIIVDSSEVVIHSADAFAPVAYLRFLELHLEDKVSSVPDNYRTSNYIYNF
# Procedure, shortened: as §1
# [1] = biological target: T4, UniProt Q86TB9 and related entries
# T4 sequence (whole entry): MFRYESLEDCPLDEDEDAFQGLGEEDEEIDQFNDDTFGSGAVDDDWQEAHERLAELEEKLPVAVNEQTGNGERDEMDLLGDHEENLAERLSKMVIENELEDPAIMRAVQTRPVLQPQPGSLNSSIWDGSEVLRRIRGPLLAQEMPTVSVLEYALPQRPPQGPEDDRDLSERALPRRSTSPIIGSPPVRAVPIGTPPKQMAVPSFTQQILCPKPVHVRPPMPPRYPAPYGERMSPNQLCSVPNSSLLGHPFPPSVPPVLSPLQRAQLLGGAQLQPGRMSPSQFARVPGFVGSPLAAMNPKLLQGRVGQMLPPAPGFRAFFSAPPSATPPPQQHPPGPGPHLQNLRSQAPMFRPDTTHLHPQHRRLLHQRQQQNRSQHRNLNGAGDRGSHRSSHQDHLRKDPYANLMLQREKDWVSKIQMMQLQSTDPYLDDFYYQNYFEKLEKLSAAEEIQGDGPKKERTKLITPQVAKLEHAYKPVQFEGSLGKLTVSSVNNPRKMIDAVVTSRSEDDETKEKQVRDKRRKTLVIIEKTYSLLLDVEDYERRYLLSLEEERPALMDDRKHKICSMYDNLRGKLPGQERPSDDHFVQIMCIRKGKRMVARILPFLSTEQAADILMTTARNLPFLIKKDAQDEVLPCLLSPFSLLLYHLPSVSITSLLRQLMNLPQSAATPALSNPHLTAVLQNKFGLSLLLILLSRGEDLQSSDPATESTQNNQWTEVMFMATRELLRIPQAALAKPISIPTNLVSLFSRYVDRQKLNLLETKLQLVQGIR
# Procedure, shortened: as §1
# [2] = biological target: T5, UniProt Q86WA6 and related entries
# T5 sequence (whole entry): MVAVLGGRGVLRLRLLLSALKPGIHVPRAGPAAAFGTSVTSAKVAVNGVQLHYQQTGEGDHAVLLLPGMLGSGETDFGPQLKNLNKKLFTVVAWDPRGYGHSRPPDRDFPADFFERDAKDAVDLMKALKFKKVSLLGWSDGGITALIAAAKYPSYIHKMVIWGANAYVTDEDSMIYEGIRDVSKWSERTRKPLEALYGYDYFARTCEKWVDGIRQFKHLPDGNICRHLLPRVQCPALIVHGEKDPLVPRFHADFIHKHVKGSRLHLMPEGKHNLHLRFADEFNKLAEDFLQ
# Procedure, shortened: as §1
compound,measurement,setting,value
Nc1nc2c(ncn2[C@@H]2O[C@H](COP(=O)(O)OP(=O)(O)OP(=O)(O)O)[C@@H](O)[C@H]2O)c(=O)[nH]1 [guanosine triphosphate],NP40-soluble protein abundance,UniProt Q6UW63; concentration: 4mM,1.04 ± 0.03
same,NP40-soluble protein abundance,UniProt Q6UW63; concentration: 6mM,1.06 ± 0.034
same,NP40-soluble protein abundance,UniProt Q6UW63; concentration: 8mM,1.02 ± 0.046
same,NP40-soluble protein abundance,UniProt Q6UW63; concentration: 10mM,0.979 ± 0.011
same,NP40-soluble protein abundance,UniProt Q6UX04; concentration: 0.1mM,1 ± 0.038
same,NP40-soluble protein abundance,UniProt Q6UX04; concentration: 0.5mM,1.04 ± 0.059
same,NP40-soluble protein abundance,UniProt Q6UX04; concentration: 1mM,1.03 ± 0.038
same,NP40-soluble protein abundance,UniProt Q6UX04; concentration: 2mM,0.986 ± 0.072
same,NP40-soluble protein abundance,UniProt Q6UX04; concentration: 4mM,0.972 ± 0.053
same,NP40-soluble protein abundance,UniProt Q6UX04; concentration: 6mM,0.999 ± 0.069
same,NP40-soluble protein abundance,UniProt Q6UX04; concentration: 8mM,1.03 ± 0.062
same,NP40-soluble protein abundance,UniProt Q6UX04; concentration: 10mM,1.02 ± 0.059
same,NP40-soluble protein abundance,UniProt Q7L8W6; concentration: 0.1mM,1.06 ± 0.11
same,NP40-soluble protein abundance,UniProt Q7L8W6; concentration: 0.5mM,0.948 ± 0.17
same,NP40-soluble protein abundance,UniProt Q7L8W6; concentration: 1mM,0.991 ± 0.04
same,NP40-soluble protein abundance,UniProt Q7L8W6; concentration: 2mM,0.952 ± 0.023
same,NP40-soluble protein abundance,UniProt Q7L8W6; concentration: 4mM,0.923 ± 0.13
same,NP40-soluble protein abundance,UniProt Q7L8W6; concentration: 6mM,0.987 ± 0.15
same,NP40-soluble protein abundance,UniProt Q7L8W6; concentration: 8mM,0.867 ± 0.16
same,NP40-soluble protein abundance,UniProt Q7L8W6; concentration: 10mM,0.797 ± 0.12
same,NP40-soluble protein abundance,[1]; concentration: 0.1mM,0.989 ± 0.055
same,NP40-soluble protein abundance,[1]; concentration: 0.5mM,0.981 ± 0.053
same,NP40-soluble protein abundance,[1]; concentration: 1mM,0.987 ± 0.034
same,NP40-soluble protein abundance,[1]; concentration: 2mM,0.966 ± 0.032
same,NP40-soluble protein abundance,[1]; concentration: 4mM,0.956 ± 0.032
same,NP40-soluble protein abundance,[1]; concentration: 6mM,0.971 ± 0.04
same,NP40-soluble protein abundance,[1]; concentration: 8mM,0.963 ± 0.03
same,NP40-soluble protein abundance,[1]; concentration: 10mM,0.966 ± 0.06
same,NP40-soluble protein abundance,[2]; concentration: 0.1mM,1.03 ± 0.053
same,NP40-soluble protein abundance,[2]; concentration: 0.5mM,0.993 ± 0.065
same,NP40-soluble protein abundance,[2]; concentration: 1mM,0.985 ± 0.02
same,NP40-soluble protein abundance,[2]; concentration: 2mM,0.943 ± 0.056
same,NP40-soluble protein abundance,[2]; concentration: 4mM,0.96 ± 0.037
same,NP40-soluble protein abundance,[2]; concentration: 6mM,0.922 ± 0.047
same,NP40-soluble protein abundance,[2]; concentration: 8mM,0.922 ± 0.03
same,NP40-soluble protein abundance,[2]; concentration: 10mM,0.908 ± 0.055

# Part of the list above, as tab-separated lines:
compound	measurement	setting	value
Nc1nc2c(ncn2[C@@H]2O[C@H](COP(=O)(O)OP(=O)(O)OP(=O)(O)O)[C@@H](O)[C@H]2O)c(=O)[nH]1 [guanosine triphosphate]	NP40-soluble protein abundance	UniProt Q6UX04; concentration: 0.5mM	1.04 ± 0.059
same	NP40-soluble protein abundance	UniProt Q6UX04; concentration: 6mM	0.999 ± 0.069
